# Measured values from the supplement of paper PMC4604168 (melanoma cell lines).
# Some of the results follow. Many values rest on one well or one pass, so single values are uncertain.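 Cells were imaged in 1,536-well plates, and nuclei stained with an antibody against cleaved PARP were counted against all DNA-stained nuclei to give the apoptosis fraction. Screening doses were chosen to leave most cells alive, and resting and induced cleaved-PARP levels differ strongly between cell lines.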
# Test system: IST-MEL1
# Test: cleaved PARP positive nuclei fraction relative to DMSO control; melanoma cells; higher = more apoptosis
# Details: library dose: low library concentration; 72 h
row,SMILES,cleaved PARP positive nuclei fraction [%]
1,"NCC(=O)Nc1ccc(-n2nc(C(F)(F)F)cc2-c2ccc3c(ccc4ccccc43)c2)cc1 + C/C(O)=C(\C#N)C(=O)Nc1cc(Br)ccc1Br [LFM-A13] (first compound 1 µM, partner dose 2 µM)",64.3
2,"COc1cc(Nc2ncc(F)c(Nc3ccc4c(n3)NC(=O)C(C)(C)O4)n2)cc(OC)c1OC [Tamatinib] + O=C(Oc1ccc([N+](=O)[O-])cc1)N1CCC(C(O)(c2ccc3c(c2)OCO3)c2ccc3c(c2)OCO3)CC1 [JZL184] (first compound 0.4 µM, partner dose 1 µM)",22
3,"O=C(O)C(=O)Nc1sc2c(c1C(=O)O)CCNC2 + O=C(Oc1ccc([N+](=O)[O-])cc1)N1CCC(C(O)(c2ccc3c(c2)OCO3)c2ccc3c(c2)OCO3)CC1 [JZL184] (first compound 1.66667 µM, partner dose 1 µM)",136
4,"Cc1cc(SCc2sc(-c3ccc(C(F)(F)F)c(F)c3)nc2C)ccc1OCC(=O)O + O=C(Oc1ccc([N+](=O)[O-])cc1)N1CCC(C(O)(c2ccc3c(c2)OCO3)c2ccc3c(c2)OCO3)CC1 [JZL184] (first compound 2 µM, partner dose 1 µM)",43.6

# Test system: LB2518-MEL
# Test: as above
# Details: library dose: low library concentration; 72 h
row,SMILES,cleaved PARP positive nuclei fraction [%]
1,"COc1ccc(COc2ccc(Cc3cnc(N)nc3N)cc2OC)cc1 + C/C(O)=C(\C#N)C(=O)Nc1cc(Br)ccc1Br [LFM-A13] (first compound 1 µM, partner dose 2 µM)",93.4
2,"O=C(Oc1ccc([N+](=O)[O-])cc1)N1CCC(C(O)(c2ccc3c(c2)OCO3)c2ccc3c(c2)OCO3)CC1 + CCCCCCCCCCCC1=C(O)C(=O)C=C(O)C1=O [Embelin] (first compound 1 µM, partner dose 1.2 µM)",83
3,"COc1cc(N2CCC(N3CCN(C)CC3)CC2)ccc1Nc1ncc(Cl)c(Nc2ccccc2S(=O)(=O)C(C)C)n1 + O=C(Oc1ccc([N+](=O)[O-])cc1)N1CCC(C(O)(c2ccc3c(c2)OCO3)c2ccc3c(c2)OCO3)CC1 [JZL184] (first compound 0.08 µM, partner dose 1 µM)",76.8
4,"O=C(Nc1ccccc1)c1cc([N+](=O)[O-])ccc1Cl + O=C(Oc1ccc([N+](=O)[O-])cc1)N1CCC(C(O)(c2ccc3c(c2)OCO3)c2ccc3c(c2)OCO3)CC1 [JZL184] (first compound 2 µM, partner dose 1 µM)",75.3
5,"COC(=O)c1sccc1S(=O)(=O)Nc1ccc(Nc2ccccc2)cc1OC + C/C(O)=C(\C#N)C(=O)Nc1cc(Br)ccc1Br [LFM-A13] (first compound 1 µM, partner dose 2 µM)",39.4
6,"O=C(Oc1ccc([N+](=O)[O-])cc1)N1CCC(C(O)(c2ccc3c(c2)OCO3)c2ccc3c(c2)OCO3)CC1 + CC(C)CCN1c2nc(Nc3cc(F)c(O)c(F)c3)ncc2N(C)C(=O)C1C [BID1870] (first compound 1 µM, partner dose 0.2 µM)",78.4
7,"C[As](C)SC[C@H](NC(=O)CC[C@H](N)C(=O)O)C(=O)NCC(=O)O [Darinaparsin] + CCN(CC)CCCCNc1ncc2cc(-c3cc(OC)cc(OC)c3)c(NC(=O)NC(C)(C)C)nc2n1 [PD173074] (first compound 0.4 µM, partner dose 0.1 µM)",76
8,"Cc1cc(SCc2sc(-c3ccc(C(F)(F)F)c(F)c3)nc2C)ccc1OCC(=O)O + C/C(O)=C(\C#N)C(=O)Nc1cc(Br)ccc1Br [LFM-A13] (first compound 2 µM, partner dose 2 µM)",81.3
9,"O=C(Nc1cccc(Cl)c1)Nc1ncc(CCNc2ncnc3ccsc23)s1 + O=C(Oc1ccc([N+](=O)[O-])cc1)N1CCC(C(O)(c2ccc3c(c2)OCO3)c2ccc3c(c2)OCO3)CC1 [JZL184] (first compound 0.0008 µM, partner dose 1 µM)",86.3
10,"COc1cc2c(Oc3ccc4[nH]c(C)cc4c3F)ncnc2cc1OCCCN1CCCC1 [cediranib] + Cc1cc(SCc2sc(-c3ccc(C(F)(F)F)c(F)c3)nc2C)ccc1OCC(=O)O [GW0742] (first compound 0.4 µM, partner dose 2 µM)",332
11,"CC1(C)NC(=O)N(c2ccc([N+](=O)[O-])c(C(F)(F)F)c2)C1=O [nilutamide] + Cc1cc(SCc2sc(-c3ccc(C(F)(F)F)c(F)c3)nc2C)ccc1OCC(=O)O [GW0742] (first compound 1 µM, partner dose 2 µM)",87.9
12,"COC(=O)c1sccc1S(=O)(=O)Nc1ccc(Nc2ccccc2)cc1OC + O=C(Oc1ccc([N+](=O)[O-])cc1)N1CCC(C(O)(c2ccc3c(c2)OCO3)c2ccc3c(c2)OCO3)CC1 [JZL184] (first compound 1 µM, partner dose 1 µM)",154
13,"C[As](C)SC[C@H](NC(=O)CC[C@H](N)C(=O)O)C(=O)NCC(=O)O [Darinaparsin] + COc1ccc(COc2ccc(Cc3cnc(N)nc3N)cc2OC)cc1 [GW2580] (first compound 0.4 µM, partner dose 1 µM)",163
14,"Cn1nnc2c(C(N)=O)ncn2c1=O [temozolomide] + C/C(O)=C(\C#N)C(=O)Nc1cc(Br)ccc1Br [LFM-A13] (first compound 2 µM, partner dose 2 µM)",153
15,"Cc1cc(SCc2sc(-c3ccc(C(F)(F)F)c(F)c3)nc2C)ccc1OCC(=O)O + Oc1nc(-c2ccc(C(F)(F)F)cc2)nc2c1CSCC2 [XAV939] (first compound 2 µM, partner dose 2 µM)",97
16,"C/C(O)=C(\C#N)C(=O)Nc1cc(Br)ccc1Br + CC(C)CCN1c2nc(Nc3cc(F)c(O)c(F)c3)ncc2N(C)C(=O)C1C [BID1870] (first compound 2 µM, partner dose 0.2 µM)",421
17,"Cc1cc(SCc2sc(-c3ccc(C(F)(F)F)c(F)c3)nc2C)ccc1OCC(=O)O + c1cc(-c2cnn3cc(-c4ccc(OCCN5CCCCC5)cc4)cnc23)ccn1 [Dorsomorphin] (first compound 2 µM, partner dose 0.4 µM)",160
18,"c1cc(-c2cnn3cc(-c4ccc(OCCN5CCCCC5)cc4)cnc23)ccn1 [Dorsomorphin] + O=C(Oc1ccc([N+](=O)[O-])cc1)N1CCC(C(O)(c2ccc3c(c2)OCO3)c2ccc3c(c2)OCO3)CC1 [JZL184] (first compound 0.4 µM, partner dose 1 µM)",92.5
19,"C[As](C)SC[C@H](NC(=O)CC[C@H](N)C(=O)O)C(=O)NCC(=O)O [Darinaparsin] + CCCCCCCCCCCC1=C(O)C(=O)C=C(O)C1=O [Embelin] (first compound 0.4 µM, partner dose 1.2 µM)",86.8
20,"COCC[n+]1c2c(n(Cc3cnccn3)c1C)C(=O)c1ccccc1C2=O + Cc1cc(SCc2sc(-c3ccc(C(F)(F)F)c(F)c3)nc2C)ccc1OCC(=O)O [GW0742] (first compound 0.0004 µM, partner dose 2 µM)",152
21,"C/C(O)=C(\C#N)C(=O)Nc1cc(Br)ccc1Br + Cn1cc(/C=C2\C(=O)Nc3cccnc32)c2ccccc21 [GW441756] (first compound 2 µM, partner dose 0.4 µM)",75.4
22,"C[As](C)SC[C@H](NC(=O)CC[C@H](N)C(=O)O)C(=O)NCC(=O)O [Darinaparsin] + Cc1cc(SCc2sc(-c3ccc(C(F)(F)F)c(F)c3)nc2C)ccc1OCC(=O)O [GW0742] (first compound 0.4 µM, partner dose 2 µM)",76.3
23,"OCCn1cc(-c2cnc3nnn(Cc4ccc5ncccc5c4)c3n2)cn1 + Cc1cc(SCc2sc(-c3ccc(C(F)(F)F)c(F)c3)nc2C)ccc1OCC(=O)O [GW0742] (first compound 1 µM, partner dose 2 µM)",88.3
24,"Cc1ccc(NC(=O)c2cccc(N(C)C)c2)cc1NC(=O)c1ccc(O)cc1 + C/C(O)=C(\C#N)C(=O)Nc1cc(Br)ccc1Br [LFM-A13] (first compound 2 µM, partner dose 2 µM)",85.5
25,"Cc1cc(SCc2sc(-c3ccc(C(F)(F)F)c(F)c3)nc2C)ccc1OCC(=O)O + Cc1cc([N+](=O)[O-])ccc1NS(=O)(=O)c1cc(Cl)ccc1Cl [FH535] (first compound 2 µM, partner dose 1 µM)",75
26,"Cn1cncc1[C@@](N)(c1ccc(Cl)cc1)c1ccc2c(c1)c(-c1cccc(Cl)c1)cc(=O)n2C [tipifarnib] + C/C(O)=C(\C#N)C(=O)Nc1cc(Br)ccc1Br [LFM-A13] (first compound 0.01 µM, partner dose 2 µM)",198
27,"Oc1nc(-c2ccc(C(F)(F)F)cc2)nc2c1CSCC2 + O=C(Oc1ccc([N+](=O)[O-])cc1)N1CCC(C(O)(c2ccc3c(c2)OCO3)c2ccc3c(c2)OCO3)CC1 [JZL184] (first compound 2 µM, partner dose 1 µM)",172
28,"O=C(O)c1ccc(-c2c[nH]c3ncc(-c4ccccc4)cc23)cc1C1CCCC1 + Cc1cc(SCc2sc(-c3ccc(C(F)(F)F)c(F)c3)nc2C)ccc1OCC(=O)O [GW0742] (first compound 0.16 µM, partner dose 2 µM)",82.1
29,"Cn1cncc1[C@@](N)(c1ccc(Cl)cc1)c1ccc2c(c1)c(-c1cccc(Cl)c1)cc(=O)n2C [tipifarnib] + Cc1cc(SCc2sc(-c3ccc(C(F)(F)F)c(F)c3)nc2C)ccc1OCC(=O)O [GW0742] (first compound 0.01 µM, partner dose 2 µM)",210

# Taken from above:
# COc1cc2c(Oc3ccc4[nH]c(C)cc4c3F)ncnc2cc1OCCCN1CCCC1 [cediranib] + Cc1cc(SCc2sc(-c3ccc(C(F)(F)F)c(F)c3)nc2C)ccc1OCC(=O)O [GW0742] (first compound 0.4 µM, partner dose 2 µM) – cleaved PARP positive nuclei fraction [%]: 332
# C/C(O)=C(\C#N)C(=O)Nc1cc(Br)ccc1Br + Cn1cc(/C=C2\C(=O)Nc3cccnc32)c2ccccc21 [GW441756] (first compound 2 µM, partner dose 0.4 µM) – cleaved PARP positive nuclei fraction [%]: 75.4
